Where “and” joins values, the source holds several entries; their conditions need not be identical. Identical values can stand only once. The list shows a part of the results. Each value is one well over the wells without odorant, computed here; the data are noisy.
System: OR2A4 clone 1386
Test: odorant receptor activation (CRE luciferase / Renilla) (fold of no-odor wells); higher = more activation
Details: 100 µM

| SMILES | odorant receptor activation |
| --- | --- |
| CC(C)C(=O)O [isobutyric acid] | 0.714 |
| CC12CCC(CC1)C(C)(C)O2 [cineole] | 0.154 |
| C=CC(C)(O)CCC=C(C)C (centres undefined) [linalool] | 0.775 |
| c1cnccn1 [pyrazine] | 1.32 |
| CC(=O)C(C)=O [diacetyl] | 1.13 |
| CC/C=C\CCO [cis-3-hexen-1-ol] | 0.188 |
| CC1=CCC(C(C)(C)O)CC1 (centres undefined) [terpineol] | 1.23 |
| CCCCCCCCOC(C)=O [octyl acetate] | 1.01 |
| CCCCO [1-butanol] | 0.776 |
| O=C1CCCCCCCCCCCC(=O)OCCO1 [ethylene brassylate] | 2.33 |
| CC1CCC(C(C)C)C(O)C1 (single isomer, unassigned; (-)) [(-)-menthol] | 0.739 |
| COC(=O)c1ccccc1O [methyl salicylate] | 0.978 |
| CC1CCC(C(C)C)C(O)C1 (single isomer, unassigned; (+)) [(+)-menthol] | 0.82 |
| C=CCc1ccc(O)c(OC)c1 [eugenol] | 1.14 and 1.56 |
| C=C(C)C1CC=C(C)C(=O)C1 (centres undefined) [r-carvone] | 1.12 |
| CC(=O)OCC=C(C)CCC=C(C)C [geranyl acetate] | 0.999 |
| CCCCCCOC(=O)CCC [hexyl butyrate] | 0.783 |
| CC(C)CCC(=O)O [4-methylvaleric acid] | 0.394 |
| c1ccc(Oc2ccccc2)cc1 [diphenyl ether] | 1.04 |
| COc1cc(C=O)ccc1O [vanillin] | 1.29 |
| CC(=O)OC(C)(C)C1CC=C(C)CC1 (centres undefined) [terpinyl acetate] | 1.1 |
| C=CCc1ccc(OC)c(OC)c1 [eugenol methyl ether] | 1.78 |
| CCCCCCCOC(C)=O [heptyl acetate] | 0.886 |
| O=C1CCCCCCCCCCCCCCO1 [pentadecalactone] | 1.25 |
| CCCCCCCCCCC=O [undecanal] | 1.13 |
| O=CCc1ccccc1 [phenyl acetaldehyde] | 2.26 |
| CCCCCCCC=O [octyl aldehyde] | 0.909 |
| CC(C)CC(=O)O [isovaleric acid] | 0.73 |

System: OR2A42 clone 1565
Test: as above
Details: 100 µM

| SMILES | odorant receptor activation |
| --- | --- |
| CC(C)C(=O)O [isobutyric acid] | 1.12 |
| CC12CCC(CC1)C(C)(C)O2 [cineole] | 0.864 |
| C=CC(C)(O)CCC=C(C)C (centres undefined) [linalool] | 0.849 |
| c1cnccn1 [pyrazine] | 0.857 |
| CC(=O)C(C)=O [diacetyl] | 0.789 |
| CC/C=C\CCO [cis-3-hexen-1-ol] | 0.937 |
| CC1=CCC(C(C)(C)O)CC1 (centres undefined) [terpineol] | 0.445 |
| CCCCCCCCOC(C)=O [octyl acetate] | 0.825 |
| CCCCO [1-butanol] | 0.541 |
| O=C1CCCCCCCCCCCC(=O)OCCO1 [ethylene brassylate] | 1.19 |
| CC1CCC(C(C)C)C(O)C1 (single isomer, unassigned; (-)) [(-)-menthol] | 0.588 |
| COC(=O)c1ccccc1O [methyl salicylate] | 0.856 |
| CC1CCC(C(C)C)C(O)C1 (single isomer, unassigned; (+)) [(+)-menthol] | 0.53 |
| C=CCc1ccc(O)c(OC)c1 [eugenol] | 1.03 |
| C=C(C)C1CC=C(C)C(=O)C1 (centres undefined) [r-carvone] | 0.795 |
| CC(=O)OCC=C(C)CCC=C(C)C [geranyl acetate] | 1.52 |
| CCCCCCOC(=O)CCC [hexyl butyrate] | 0.954 |
| CC(C)CCC(=O)O [4-methylvaleric acid] | 0.722 |
| c1ccc(Oc2ccccc2)cc1 [diphenyl ether] | 0.778 |
| COc1cc(C=O)ccc1O [vanillin] | 0.762 |
| CC(=O)OC(C)(C)C1CC=C(C)CC1 (centres undefined) [terpinyl acetate] | 0.723 |
| C=CCc1ccc(OC)c(OC)c1 [eugenol methyl ether] | 0.726 |
| CCCCCCCOC(C)=O [heptyl acetate] | 0.741 |
| O=C1CCCCCCCCCCCCCCO1 [pentadecalactone] | 0.762 |
| CCCCCCCCCCC=O [undecanal] | 0.894 |
| O=CCc1ccccc1 [phenyl acetaldehyde] | 1.58 |
| CCCCCCCC=O [octyl aldehyde] | 0.848 |
| CC(C)CC(=O)O [isovaleric acid] | 1.13 |

System: OR2A5 clone 1437
Test: as above
Details: 100 µM

| SMILES | odorant receptor activation |
| --- | --- |
| CC(C)C(=O)O [isobutyric acid] | 0.769 |
| CC12CCC(CC1)C(C)(C)O2 [cineole] | 0.269 |
| C=CC(C)(O)CCC=C(C)C (centres undefined) [linalool] | 1.13 |
| c1cnccn1 [pyrazine] | 1.19 |
| CC(=O)C(C)=O [diacetyl] | 1.55 |
| CC/C=C\CCO [cis-3-hexen-1-ol] | 0.344 |
| CC1=CCC(C(C)(C)O)CC1 (centres undefined) [terpineol] | 1.05 |
| CCCCCCCCOC(C)=O [octyl acetate] | 0.869 |
| CCCCO [1-butanol] | 0.945 |
| O=C1CCCCCCCCCCCC(=O)OCCO1 [ethylene brassylate] | 2.34 |
| CC1CCC(C(C)C)C(O)C1 (single isomer, unassigned; (-)) [(-)-menthol] | 0.628 |
| COC(=O)c1ccccc1O [methyl salicylate] | 1.33 |
| CC1CCC(C(C)C)C(O)C1 (single isomer, unassigned; (+)) [(+)-menthol] | 0.623 |
| C=CCc1ccc(O)c(OC)c1 [eugenol] | 1.57 and 1.49 |
| C=C(C)C1CC=C(C)C(=O)C1 (centres undefined) [r-carvone] | 1.16 |
| CC(=O)OCC=C(C)CCC=C(C)C [geranyl acetate] | 1.14 |
| CCCCCCOC(=O)CCC [hexyl butyrate] | 0.886 |
| CC(C)CCC(=O)O [4-methylvaleric acid] | 0.901 |
| c1ccc(Oc2ccccc2)cc1 [diphenyl ether] | 1.27 |
| COc1cc(C=O)ccc1O [vanillin] | 1 |
| CC(=O)OC(C)(C)C1CC=C(C)CC1 (centres undefined) [terpinyl acetate] | 0.891 |
| C=CCc1ccc(OC)c(OC)c1 [eugenol methyl ether] | 1.54 |
| CCCCCCCOC(C)=O [heptyl acetate] | 0.999 |
| O=C1CCCCCCCCCCCCCCO1 [pentadecalactone] | 1.35 |
| CCCCCCCCCCC=O [undecanal] | 1.07 |
| O=CCc1ccccc1 [phenyl acetaldehyde] | 1.9 |
| CCCCCCCC=O [octyl aldehyde] | 0.72 |
| CC(C)CC(=O)O [isovaleric acid] | 0.906 |

— the odorant receptor screen of Mainland et al. (2015)
